Binding data for 6 molecules are collected here from PMC5190079.

By UniProt entry, the sequences of proteins in these tests, tags left out. Residues count along the entry.
UniProt Q03405, residues 23-305: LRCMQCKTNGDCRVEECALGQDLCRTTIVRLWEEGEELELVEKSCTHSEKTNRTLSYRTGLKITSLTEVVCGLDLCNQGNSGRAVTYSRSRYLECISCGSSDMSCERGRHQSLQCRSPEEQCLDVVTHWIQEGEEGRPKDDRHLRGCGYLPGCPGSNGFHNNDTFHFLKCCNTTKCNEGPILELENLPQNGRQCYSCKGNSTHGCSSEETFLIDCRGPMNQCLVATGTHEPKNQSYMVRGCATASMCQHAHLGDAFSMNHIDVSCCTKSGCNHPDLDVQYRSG
UniProt P67809: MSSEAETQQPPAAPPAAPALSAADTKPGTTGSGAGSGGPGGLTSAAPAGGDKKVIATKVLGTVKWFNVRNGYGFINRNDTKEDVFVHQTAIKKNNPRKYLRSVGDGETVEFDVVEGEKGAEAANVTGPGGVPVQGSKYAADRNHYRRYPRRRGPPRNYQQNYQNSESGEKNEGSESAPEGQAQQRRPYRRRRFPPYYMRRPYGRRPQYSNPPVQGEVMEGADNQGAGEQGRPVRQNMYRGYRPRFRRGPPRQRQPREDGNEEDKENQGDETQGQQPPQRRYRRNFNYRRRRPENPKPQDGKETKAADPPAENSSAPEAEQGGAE

Assay [1] has as its target urokinase plasminogen activator receptor (plasminogen activator, urokinase receptor) (human (endogenous in MDA-MB-231)) (UniProt Q03405). The assay is described as follows: affinity purification with mass spectrometry; co-IP of endogenous uPAR from MDA-MB-231 lysate with polyclonal anti-uPAR antibody (AF807), 60 min at 4°C, protein A/G PLUS beads 15 h at 4°C; polyclonal goat isotype antibody as negative control; Laemmli eluates analysed by LC-MS/MS (LTQ Orbitrap XL).

For assay [2] the target is unchanged. The assay is described as above. This is another data set of the same source.

Like-named read-outs stand apart in the source and are kept apart here. No constants are given. Whether binding was seen depends on the method and setting. In cells and extracts the contact can be indirect. A yes stands for co-enrichment or nearness to the bait. Other partners may have been found. For part of these data: Tags and fused reporters may be left off the sequences shown.

Regarding “Y-box-binding protein 1 (from UniProt P67809 1-324)”, the binding result in assay [1] was “binds”. Turning to “tubulin, alpha 4a (from UniProt P68366-1 1-448)”, the binding entry in assay [1] is reported as “binds”.

B1: cell cycle associated protein 1 (protein, UniProt Q14444-1 1-709)
chain: MPSATSHSGSGSKSSGPPPPSGSSGSEAAAGAGAAAPASQHPATGTGAVQTEAMKQILGVIDKKLRNLEKKKGKLDDYQERMNKGERLNQDQLDAVSKYQEVTNNLEFAKELQRSFMALSQDIQKTIKKTARREQLMREEAEQKRLKTVLELQYVLDKLGDDEVRTDLKQGLNGVPILSEEELSLLDEFYKLVDPERDMSLRLNEQYEHASIHLWDLLEGKEKPVCGTTYKVLKEIVERVFQSNYFDSTHNHQNGLCEEEEAASAPAVEDQVPEAEPEPAEEYTEQSEVESTEYVNRQFMAETQFTSGEKEQVDEWTVETVEVVNSLQQQPQAASPSVPEPHSLTPVAQADPLVRRQRVQDLMAQMQGPYNFIQDSMLDFENQTLDPAIVSAQPMNPTQNMDMPQLVCPPVHSESRLAQPNQVPVQPEATQVPLVSSTSEGYTASQPLYQPSHATEQRPQKEPIDQIQATISLNTDQTTASSSLPAASQPQVFQAGTSKPLHSSGINVNAAPFQSMQTVFNMNAPVPPVNEPETLKQQNQYQASYNQSFSSQPHQVEQTELQQEQLQTVVGTYHGSPDQSHQVTGNHQQPPQQNTGFPRSNQPYYNSRGVSRGGSRGARGLMNGYRGPANGFRGGYDGYRPSFSNTPNSGYTQSQFSAPRDYSGYQRDGYQQNFKRGSGQSGPRGAPRGRGGPPRPNRGMPQMNTQQVN
As for B1, in assay [2], the binding entry is recorded as “binds”.

B2: DEAH (Asp-Glu-Ala-His) box polypeptide 16 (protein, UniProt O60231 1-1041)
chain: MATPAGLERWVQDELHSVLGLSERHVAQFLIGTAQRCTSAEEFVQRLRDTDTLDLSGPARDFALRLWNKVPRKAVVEKPARAAEREARALLEKNRSYRLLEDSEESSEETVSRAGSSLQKKRKKRKHLRKKREEEEEEEASEKGKKKTGGSKQQTEKPESEDEWERTERERLQDLEERDAFAERVRQRDKDRTRNVLERSDKKAYEEAQKRLKMAEEDRKAMVPELRKKSRREYLAKREREKLEDLEAELADEEFLFGDVELSRHERQELKYKRRVRDLAREYRAAGEQEKLEATNRYHMPKETRGQPARAVDLVEEESGAPGEEQRRWEEARLGAASLKFGARDAASQEPKYQLVLEEEETIEFVRATQLQGDEEPSAPPTSTQAQQKESIQAVRRSLPVFPFREELLAAIANHQVLIIEGETGSGKTTQIPQYLFEEGYTNKGMKIACTQPRRVAAMSVAARVAREMGVKLGNEVGYSIRFEDCTSERTVLRYMTDGMLLREFLSEPDLASYSVVMVDEAHERTLHTDILFGLIKDVARFRPELKVLVASATMDTARFSTFFDDAPVFRIPGRRFPVDIFYTKAPEADYLEACVVSVLQIHVTQPPGDILVFLTGQEEIEAACEMLQDRCRRLGSKIRELLVLPIYANLPSDMQARIFQPTPPGARKVVVATNIAETSLTIEGIIYVLDPGFCKQKSYNPRTGMESLTVTPCSKASANQRAGRAGRVAAGKCFRLYTAWAYQHELEETTVPEIQRTSLGNVVLLLKSLGIHDLMHFDFLDPPPYETLLLALEQLYALGALNHLGELTTSGRKMAELPVDPMLSKMILASEKYSCSEEILTVAAMLSVNNSIFYRPKDKVVHADNARVNFFLPGGDHLVLLNVYTQWAESGYSSQWCYENFVQFRSMRRARDVREQLEGLLERVEVGLSSCQGDYIRVRKAITAGYFYHTARLTRSGYRTVKQQQTVFIHPNSSLFEQQPRWLLYHELVLTTKEFMRQVLEIESSWLLEVAPHYYKAKELEDPHAKKMPKKIGKTREELG
Take B2: the binding entry in assay [2] is on record as “binds”.

B3: tight junction protein 2 (protein, UniProt Q9UDY2-2 1-1043)
chain: MPVRGDRGFPPRRELSGWLRAPGMEELIWEQYTVTLQKDSKRGFGIAVSGGRDNPHFENGETSIVISDVLPGGPADGLLQENDRVVMVNGTPMEDVLHSFAVQQLRKSGKVAAIVVKRPRKVQVAALQASPPLDQDDRAFEVMDEFDGRSFRSGYSERSRLNSHGGRSRSWEDSPERGRPHERARSRERDLSRDRSRGRSLERGLDQDHARTRDRSRGRSLERGLDHDFGPSRDRDRDRSRGRSIDQDYERAYHRAYDPDYERAYSPEYRRGARHDARSRGPRSRSREHPHSRSPSPEPRGRPGPIGVLLMKSRANEEYGLRLGSQIFVKEMTRTGLATKDGNLHEGDIILKINGTVTENMSLTDARKLIEKSRGKLQLVVLRDSQQTLINIPSLNDSDSEIEDISEIESNRSFSPEERRHQYSDYDYHSSSEKLKERPSSREDTPSRLSRMGATPTPFKSTGDIAGTVVPETNKEPRYQEDPPAPQPKAAPRTFLRPSPEDEAIYGPNTKMVRFKKGDSVGLRLAGGNDVGIFVAGIQEGTSAEQEGLQEGDQILKVNTQDFRGLVREDAVLYLLEIPKGEMVTILAQSRADVYRDILACGRGDSFFIRSHFECEKETPQSLAFTRGEVFRVVDTLYDGKLGNWLAVRIGNELEKGLIPNKSRAEQMASVQNAQRDNAGDRADFWRMRGQRSGVKKNLRKSREDLTAVVSVSTKFPAYERVLLREAGFKRPVVLFGPIADIAMEKLANELPDWFQTAKTEPKDAGSEKSTGVVRLNTVRQIIEQDKHALLDVTPKAVDLLNYTQWFPIVIFFNPDSRQGVKTMRQRLNPTSNKSSRKLFDQANKLKKTCAHLFTATINLNSANDSWFGSLKDTIQHQQGEAVWVSEGKMEGMDDDPEDRMSYLTAMGADYLSCDSRLISDFEDTDGEGGAYTDNELDEPAEEPLVSSITRSSEPVQHEEIEIAQKHPDIYAVPIKTHKPDPGTPQHTSSRPPEPQKAPSRPYQDTRGSYGSDAEEEEYRQQLSEHSKRGYYGQSARYRDTEL
For the molecule B3, the binding entry in assay [2] is reported as “binds”.

B4: cysteine-rich angiogenic inducer 61 (protein, UniProt O00622 25-381)
chain: TCPAACHCPLEAPKCAPGVGLVRDGCGCCKVCAKQLNEDCSKTQPCDHTKGLECNFGASSTALKGICRAQSEGRPCEYNSRIYQNGESFQPNCKHQCTCIDGAVGCIPLCPQELSLPNLGCPNPRLVKVTGQCCEEWVCDEDSIKDPMEDQDGLLGKELGFDASEVELTRNNELIAVGKGSSLKRLPVFGMEPRILYNPLQGQKCIVQTTSWSQCSKTCGTGISTRVTNDNPECRLVKETRICEVRPCGQPVYSSLKKGKKCSKTKKSPEPVRFTYAGCLSVKKYRPKYCGSCVDGRCCTPQLTRTVKMRFRCEDGETFSKNVMMIQSCKCNYNCPHANEAAFPFYRLFNDIHKFRD
B4: in assay [2], the binding result is on record as “binds”.
